Measurements: PubChem BioAssay AID504327 (National Center for Advancing Translational Sciences (NCATS), 2011)
Screen size: about 390,000 compounds; about 820 (0.21%) were called active. The inconclusive results got no clear call from the source; some entries with a clear call stand among them for comparison. Calls come from the whole dose curve; as a rule, active = well fitted inhibition curve with a large enough effect; inconclusive = small, poorly fitted or top-dose-only effect, or another doubt; inactive = no such curve, though single readings can be large or run the other way. Where the call is inconclusive, the potency comes from a doubtful curve fit. Residues, ends and D or L forms follow the SMILES beside them. *: point of attachment. Cbz = O=C(OCc1ccccc1)*

The chains behind the UniProt entries cited, without tags or fusion partners.
UniProt Q92830, whole entry, looked up: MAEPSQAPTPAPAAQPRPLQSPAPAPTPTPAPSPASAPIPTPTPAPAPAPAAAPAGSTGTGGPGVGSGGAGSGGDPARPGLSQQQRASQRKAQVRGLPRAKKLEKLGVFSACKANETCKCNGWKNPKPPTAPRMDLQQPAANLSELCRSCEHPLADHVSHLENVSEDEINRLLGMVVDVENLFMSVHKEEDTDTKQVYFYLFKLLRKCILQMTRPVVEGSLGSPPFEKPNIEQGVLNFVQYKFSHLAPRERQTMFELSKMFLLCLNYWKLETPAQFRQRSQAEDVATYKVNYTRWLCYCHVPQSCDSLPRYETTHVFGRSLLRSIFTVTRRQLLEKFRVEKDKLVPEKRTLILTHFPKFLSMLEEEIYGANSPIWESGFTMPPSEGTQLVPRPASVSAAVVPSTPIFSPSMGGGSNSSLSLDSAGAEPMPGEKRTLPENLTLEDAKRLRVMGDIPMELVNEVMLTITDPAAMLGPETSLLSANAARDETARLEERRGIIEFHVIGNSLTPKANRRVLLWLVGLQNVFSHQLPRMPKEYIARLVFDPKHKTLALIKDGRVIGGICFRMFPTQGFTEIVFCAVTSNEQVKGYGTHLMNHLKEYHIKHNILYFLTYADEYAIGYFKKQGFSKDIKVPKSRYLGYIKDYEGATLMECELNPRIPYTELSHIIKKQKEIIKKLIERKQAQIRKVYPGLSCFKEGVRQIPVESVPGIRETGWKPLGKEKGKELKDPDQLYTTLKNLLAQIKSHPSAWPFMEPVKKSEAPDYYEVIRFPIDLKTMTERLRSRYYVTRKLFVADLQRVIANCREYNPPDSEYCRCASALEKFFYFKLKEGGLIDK

The compounds below were run against Histone acetyltransferase KAT2A (Homo sapiens) (UniProt Q92830) (assay: qHTS Assay for Inhibitors of GCN5L2). Conditions: GCN5L2 HAT assay, ThioGlo1 CoA-SH fluorescence; activity change, negative = inhibition: at 58.9 µM (top of the series) unless noted.
Outline: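 qHTS, 1536-well. 20nM enzyme, pH 7.5 HEPES/EDTA/Tween-20 buffer; 15 min compound preinc., RT. Start: 75uM H3(1-25), 70uM AcCoA, 50uM ThioGlo1. Read Ex340/Em540 at t=0 (autofluorescence flag) and t=20 min.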
% is set by controls: 0 for no effect and ±100 for the full control effect; potency is the fitted concentration of half-maximal effect.

| SMILES | Potency | activity change, negative = inhibition |
| --- | --- | --- |
| Cc1ccc(C(=O)/C=C/c2ccc3ncccc3c2)cc1 | inconclusive: 7.08 µM [inhibitor, single point] |  |
| COc1ccc(-c2cc(C(F)(F)F)nc(S(C)(=O)=O)n2)cc1OC | inconclusive: 0.398 µM [inhibitor, partial curve, poor fit] |  |
| CCn1c(C(=O)NCc2ccccn2)cc2sccc21 | inconclusive: 39.8 µM [inhibitor, single point] |  |
| CCC1(c2ccccc2)NC(=S)N(c2ccc(C)c(C)c2)N1 (configuration not stated) | inconclusive: 25.1 µM [inhibitor, partial curve] |  |
| CCc1ncc(CN2CCCC(C(=O)Nc3cccc(-c4ccc(F)cc4)c3)C2)cn1 (configuration not stated) |  | inactive: -9.68% |
| COc1cc2nc(N3CCCN(C)CC3)nc(NC3CCN(Cc4ccccc4)CC3)c2cc1OC | inconclusive: 35.5 µM [inhibitor, single point] |  |
| CC(C)Cc1nnc(NC(=O)Cc2cccs2)s1 |  | inactive: -2.17% |
| Cc1ccc(NC(=O)NC(=O)COc2c(F)c(F)cc(F)c2F)c(C)c1 |  | inactive: -9.67% |
| O=C(c1ccc(F)cc1)N1CCN(Cc2ccccc2)CC1 |  | inactive: -7.54% |
| CC(=O)Oc1ccc2c(=O)c(Oc3ccccc3)coc2c1OC(C)=O |  | inactive: -0.346% |
| O=C(CN1CCN(S(=O)(=O)c2ccc(Cl)s2)CC1)NCc1ccc(Cl)cc1 | inconclusive: 35.5 µM [inhibitor, partial curve] |  |
| O=[N+]([O-])c1cccc(/C([O-])=C(/C(=S)Nc2ccccc2F)[n+]2ccccc2)c1 | inconclusive: 39.8 µM [inhibitor, single point] |  |
| COc1ccc(S(=O)(=O)N2CCC(C(=O)Oc3cccc(C)c3)CC2)cc1OC | inconclusive: 39.8 µM [inhibitor, single point] |  |
| COc1ccc(CCNC(=O)c2cc(-c3ccccc3)c(N3CCOCC3)s2)c(OC)c1OC |  | inactive: -14.6% |
| CCC(CC)NC(=O)Cc1ccccc1[N+](=O)[O-] | inconclusive: 39.8 µM [inhibitor, single point] |  |
| CCOC(=O)CSc1nc(N)c(C#N)c(-c2ccc(OC)cc2)c1C#N |  | inactive: -3.02% |
| CC(C)[C@H](NC(=O)OCc1ccccc1)C(=O)N[C@H](C=O)Cc1ccccc1 (Cbz-Val-Phe-aldehyde) | inconclusive: 35.5 µM [inhibitor, single point] |  |
| Cc1ccc(C(=O)N2CCCCC2)cc1S(=O)(=O)N1CCOCC1 | inconclusive: 39.8 µM [inhibitor, single point] |  |
| CCC(C)Sc1nc2c(cnn2-c2ccc(C)cc2)c(=O)[nH]1 (configuration not stated) | inconclusive: 25.1 µM [inhibitor, partial curve, poor fit] |  |
| Cc1oc2cc(O)ccc2c(=O)c1Oc1ccc2ccccc2c1 | inconclusive: 0.794 µM [inhibitor, single point] |  |
| O=C(Nc1nnc(C2CC2)s1)c1n[nH]c(=O)c2ccccc12 |  | inactive: -4.54% |
| C=C(C)C(=O)Nc1ccc(OC(F)(F)C(F)F)c(NC(=O)C(=C)C)c1 |  | inactive: -6.75% |
| Cc1ccc(-c2cc(C(=O)N3CCCC3)c3ccccc3n2)s1 | inconclusive: 39.8 µM [inhibitor, single point] |  |
| CN1CC=C2C(C#N)=C(N)C(C#N)(C#N)[C@H](c3cccs3)[C@H]2C1 |  | inactive: -5.41% |

Some of the entries so far, bar-delimited:
SMILES | Potency | activity change, negative = inhibition
CCn1c(C(=O)NCc2ccccn2)cc2sccc21 | inconclusive: 39.8 µM [inhibitor, single point] | 
CCC1(c2ccccc2)NC(=S)N(c2ccc(C)c(C)c2)N1 (configuration not stated) | inconclusive: 25.1 µM [inhibitor, partial curve] | 
CCc1ncc(CN2CCCC(C(=O)Nc3cccc(-c4ccc(F)cc4)c3)C2)cn1 (configuration not stated) |  | inactive: -9.68%
Cc1ccc(NC(=O)NC(=O)COc2c(F)c(F)cc(F)c2F)c(C)c1 |  | inactive: -9.67%
COc1ccc(CCNC(=O)c2cc(-c3ccccc3)c(N3CCOCC3)s2)c(OC)c1OC |  | inactive: -14.6%
CC(C)[C@H](NC(=O)OCc1ccccc1)C(=O)N[C@H](C=O)Cc1ccccc1 (Cbz-Val-Phe-aldehyde) | inconclusive: 35.5 µM [inhibitor, single point] | 
Cc1ccc(C(=O)N2CCCCC2)cc1S(=O)(=O)N1CCOCC1 | inconclusive: 39.8 µM [inhibitor, single point] | 
Cc1oc2cc(O)ccc2c(=O)c1Oc1ccc2ccccc2c1 | inconclusive: 0.794 µM [inhibitor, single point] | 
C=C(C)C(=O)Nc1ccc(OC(F)(F)C(F)F)c(NC(=O)C(=C)C)c1 |  | inactive: -6.75%

(continued)

| SMILES | Potency | activity change, negative = inhibition |
| --- | --- | --- |
| O=C(CSc1nnc(-c2ccccc2Br)o1)Nc1cccc2ccccc12 | inconclusive: 39.8 µM [inhibitor, single point] |  |
| CC(NC(=O)C1CC1)c1ccc(-c2ccccc2)cc1 (configuration not stated) | inconclusive: 0.708 µM [inhibitor, single point] |  |
| CC1(C)CC(NC(=O)c2cc(COc3cccc(C(F)(F)F)c3)on2)CCO1 (configuration not stated) |  | inactive: -6.64% |
| CCCC(C(=O)NCc1ccco1)N(C(=O)CNS(=O)(=O)c1ccccc1)c1ccccc1OC (configuration not stated) | inconclusive: 5.62 µM [inhibitor, full curve, poor fit] |  |
| O=C(COC(=O)C1CCN(c2ccc(C(F)(F)F)cn2)CC1)NCc1cccc(Cl)c1 | inconclusive: 28.2 µM [inhibitor, single point] |  |
| CN(C)CCN(C(=O)/C=C/c1cccs1)c1nc2ccc(F)cc2s1 |  | inactive: 2.45% |
| CC1CCCCC1NC(=O)C1CCN(S(=O)(=O)c2cccc3nonc23)CC1 (configuration not stated) |  | inactive: 0.713% |
| NC1CCN(c2c(F)cc3c(=O)c(C(=O)O)cn(C4CC4)c3c2Cl)C1 (configuration not stated) |  | inactive: -14% |
| O=S(=O)(c1ccc2nc(Cc3cccc(C(F)(F)F)c3)[nH]c2c1)N1CCOCC1 | inconclusive: 28.2 µM [inhibitor, single point] |  |
| CCC(CC)C(=O)Nc1cccc(-c2nc3ncccn3c2C)c1 | inconclusive: 22.4 µM [inhibitor, single point] |  |
| COc1ccc(CN(C)c2ccc(-c3nc(C)no3)cc2[N+](=O)[O-])cc1 |  | inactive: -3.68% |
| CCNC(=S)Nc1ccc(N2CCCCC2)cc1 |  | inactive: 2.38% |
| COc1cccc(CN(C)C(=O)c2ccc3nccnc3c2)c1 | inconclusive: 39.8 µM [inhibitor, single point] |  |
| CCOC(=O)/C=C1\CN(Cc2cc(OC)c(OC)c(OC)c2)S(=O)(=O)c2ccccc21 | inconclusive: 3.98 µM [inhibitor, single point] |  |
| CC(=O)OCC1OC(n2ccc(=O)[nH]c2=O)C(O)C1O (configuration not stated) |  | inactive: 0.696% |
| O=S(=O)(c1ccc(Cl)cc1)N1CCN(c2nc(-c3cccs3)nc3ccccc23)CC1 |  | inactive: -6.46% |
| CN(NS(C)(=O)=O)c1ncc(C(F)(F)F)cc1Cl |  | inactive: -1.08% |
| CSc1ccc(/C=N/n2c(Cc3ccc(Br)cc3)n[nH]c2=S)cc1 |  | inactive: -3.58% |
| O=C(Oc1ccc(N(Cc2cccs2)C2=NS(=O)(=O)c3ccccc32)cc1)c1ccccc1Cl |  | inactive: -4.77% |
| CCCCC(=O)Nc1c(O)c2ccccc2[nH]c1=O |  | inactive: -15.6% |
| Cn1cc(C(=O)N/N=C/c2ccc([N+](=O)[O-])cc2)c2ccccc21 | inconclusive: 0.141 µM [inhibitor, full curve, poor fit] |  |
| N#Cc1c(N)n(-c2cccc(O)c2)c2nc3ccccc3nc12 | inconclusive: 7.08 µM [inhibitor, single point] |  |
| CC(=O)N1CCC(=NNc2ccc(S(N)(=O)=O)cc2[N+](=O)[O-])CC1 | inconclusive: 39.8 µM [inhibitor, single point] |  |
